Test results as given in PubChem BioAssay AID504327 (National Center for Advancing Translational Sciences (NCATS), 2011).
Hit rate of the full screen: of about 390,000 compounds, about 820 (0.21%) were called active. Inconclusive means that the source gave no clear call. Such entries were picked first, then a sample of the others. The call rests on the fitted dose curve; in most records, active means well fitted inhibition curve with a large enough effect; inconclusive means small, poorly fitted or top-dose-only effect, or another doubt; inactive means no such curve, though single readings can be large or run the other way. Potencies beside an inconclusive call are fits to weak or partial responses and may not hold up.

Protein sequences, listed by entry. Tags and fused reporters are not part of them.
UniProt Q92830, whole entry, looked up: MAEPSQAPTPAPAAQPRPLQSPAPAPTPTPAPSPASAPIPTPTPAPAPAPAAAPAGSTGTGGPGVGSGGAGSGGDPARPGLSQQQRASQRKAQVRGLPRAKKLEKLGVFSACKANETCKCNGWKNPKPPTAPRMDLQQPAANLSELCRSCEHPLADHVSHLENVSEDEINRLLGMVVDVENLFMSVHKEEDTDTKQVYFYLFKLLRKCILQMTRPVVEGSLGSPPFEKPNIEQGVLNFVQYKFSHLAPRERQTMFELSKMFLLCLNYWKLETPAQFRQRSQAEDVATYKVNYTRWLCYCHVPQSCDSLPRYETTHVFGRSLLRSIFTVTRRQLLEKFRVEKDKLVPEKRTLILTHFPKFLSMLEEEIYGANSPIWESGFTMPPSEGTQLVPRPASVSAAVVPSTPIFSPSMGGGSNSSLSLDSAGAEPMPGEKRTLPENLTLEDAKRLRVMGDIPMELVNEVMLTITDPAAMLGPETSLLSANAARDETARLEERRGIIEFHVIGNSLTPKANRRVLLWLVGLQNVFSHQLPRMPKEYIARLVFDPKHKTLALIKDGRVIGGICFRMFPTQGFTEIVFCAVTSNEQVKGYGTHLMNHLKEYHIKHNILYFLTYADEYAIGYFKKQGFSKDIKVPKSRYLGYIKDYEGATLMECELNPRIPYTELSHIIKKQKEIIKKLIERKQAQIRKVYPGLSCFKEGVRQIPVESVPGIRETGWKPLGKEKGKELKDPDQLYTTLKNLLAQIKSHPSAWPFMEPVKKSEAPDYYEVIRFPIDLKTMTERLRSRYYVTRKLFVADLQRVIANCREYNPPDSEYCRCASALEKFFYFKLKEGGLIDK

Target: Histone acetyltransferase KAT2A (Homo sapiens) (UniProt Q92830)
Experiment: qHTS Assay for Inhibitors of GCN5L2
Conditions: GCN5L2 HAT assay, ThioGlo1 CoA-SH fluorescence; activity change, negative = inhibition: at 58.9 µM (top of the series) unless noted
In short: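 qHTS, 1536-well. 20nM enzyme, pH 7.5 HEPES/EDTA/Tween-20 buffer; 15 min compound preinc., RT. Start: 75uM H3(1-25), 70uM AcCoA, 50uM ThioGlo1. Read Ex340/Em540 at t=0 (autofluorescence flag) and t=20 min.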
On the % scale 0 is the no-effect control and ±100 the full control effect; potency means the concentration at half of the fitted maximal effect.

Row | Compound | Potency | activity change, negative = inhibition
1 | Cc1cc(NS(=O)(=O)c2ccc(NC(=O)/C=C/c3c(F)cccc3Cl)cc2)no1 | inconclusive: 12.6 µM [inhibitor, partial curve] | 
2 | CC(=O)c1cc2c(=O)c3cc(C)ccc3oc2nc1C | inactive | 
3 | S=C(c1cn(Cc2ccc(Br)cc2)c2ccccc12)N1CCOCC1 | inactive | 
4 | COc1ccc(-c2noc(N3CCC(C(=O)Nc4ccc(OC)cc4OC)CC3)n2)cc1 | inconclusive: 25.1 µM [inhibitor, partial curve, poor fit] | 
5 | COc1ccccc1-n1c(CNC(=O)c2ccco2)n[nH]c1=S | inactive | 
6 | Cc1cccc(N2CCN(C(=O)c3ccc4c(c3)CCN4S(=O)(=O)c3ccccc3)CC2)c1C | inconclusive: 3.98 µM [inhibitor, single point] | 
7 | COCCn1c(=NC(=O)CSCC(=O)Nc2cc(C)on2)sc2cc(C(=O)OC)ccc21 | inactive | 
8 | Cc1ccc(-c2nn(-c3ccccc3)cc2CN(C)C(=O)CCC(=O)O)cc1C | inactive | 
9 | CC(=O)N(\C=C/C=C/C=C1\Sc2ccccc2C1=O)c1ccccc1 | inconclusive: 25.1 µM [inhibitor, single point] | 
10 | CCOC(=O)C1=C(C)N(C)C(=O)NC1c1cccc2ccccc12 (stereo not given) | inconclusive: 39.8 µM [inhibitor, single point] | 
11 | CC(C)C[C@@H](COCc1cccc(Cl)c1)N1CCN(C(=O)c2cccc(C(F)(F)F)c2)CCC1=O | inconclusive: 8.91 µM [inhibitor, full curve, poor fit] | 
12 | COC(=O)c1nnn(-c2cc(Cl)cc(Cl)c2)c1C(=O)OC | inconclusive: 15.8 µM [inhibitor, partial curve] | 
13 | CN1C(=O)c2cccc3c(S(=O)(=O)N(C)C)ccc1c23 | inconclusive: 39.8 µM [inhibitor, single point] | 
14 | COC(=O)c1nc(NC(=O)c2ccc(F)cc2)n[nH]1 | inconclusive: 0.631 µM [inhibitor, single point] | 
15 | COc1ccc(S(=O)(=O)Nc2cc(SCC(=O)O)c(O)c3ccccc23)cc1 | inactive | 
16 | COc1ccc(-c2[nH]c(-c3ccc(C(=O)O)cc3)nc2-c2ccccc2)cc1 | inconclusive: 39.8 µM [inhibitor, single point] | 
17 | O=C(N/N=C/c1cc([N+](=O)[O-])ccc1O)C(O)(c1ccccc1)c1ccccc1 | inconclusive: 39.8 µM [inhibitor, single point] | 
18 | Cc1cccc(Cc2c(C)nc3nc(SCC(=O)NC4CCCCC4)nn3c2C)c1 | inactive | 
19 | N=C(N)n1c(N)nc2ccccc2c1=O | inconclusive: 0.794 µM [inhibitor, partial curve, poor fit] | 
20 | CCOC(=O)c1nnc2c(-c3ccc(F)cc3)c(C)nn2c1N | inactive | 
21 | O=C(CSc1nncn1-c1ccccc1)N1CCCC1 | inactive | 
22 | COc1ccccc1-c1cncnc1NCCNC(C)=O | inconclusive: 31.6 µM [inhibitor, single point] | 
23 | CCOC(=O)CNc1c(-c2ccc(O)cc2)nc2ccccn12 | inconclusive: 22.4 µM [inhibitor, partial curve] | 
24 | CN(C)c1ccc(NC(=O)c2ccc(N3CCOCC3)nc2)cc1 | inconclusive: 39.8 µM [inhibitor, single point] | 

Row | Compound | Potency | activity change, negative = inhibition
25 | CC(=O)N1N=C(c2cccs2)CC1c1ccco1 (stereo not given) | inconclusive: 39.8 µM [inhibitor, single point] | 
26 | COC(=O)CN1C(=O)N/C(=C/c2ccc(C)o2)C1=O | inconclusive: 39.8 µM [inhibitor, single point] | 
27 | Cc1nc2cnc(N3CCNCC3)nc2n(Cc2ccc(F)cc2)c1=O | inconclusive: 31.6 µM [inhibitor, single point] | 
28 | Cc1ccc2c(c1)COc1c3ccc(C(=O)NCCO)cc3nn1-2 | inconclusive: 2.82 µM [inhibitor, full curve, poor fit] | 
29 | CCOC(=O)c1nn(-c2ccc(C)c(C)c2)c(=O)c2c(N)scc12 | inconclusive: 39.8 µM [inhibitor, single point] | 
30 | Oc1ccc(Oc2ncc(Cl)cc2Cl)cc1 | inactive | 
31 | Cc1ccc(C(=O)Nn2cnnc2)cc1S(=O)(=O)N1CCOCC1 | inactive | 
32 | Cc1cc(NC(=O)CN2CCCCC2)no1 | inactive | 
33 | CN(Cc1ccon1)C(=O)CC1C(=O)NCCN1Cc1cccc(F)c1F (stereo not given) | inconclusive: 10 µM [inhibitor, partial curve, poor fit] | 
34 | CCOC(=O)/C=C/C(=O)OCC(=O)Nc1ccc(Cl)cn1 |  | inconclusive: -93.1% [inhibitor]
35 | CC(=O)OCC1=C(C(=O)O)N2C(=O)C(NC(=O)c3ccc(COc4c(C)cccc4Cl)o3)C2SC1 (stereo not given) | inconclusive: 31.6 µM [inhibitor, single point] | 
36 | CCn1c(=O)c2cc(C(=O)Nc3cc(F)ccc3F)sc2c2ccccc21 | inactive | 
37 | Cc1ccc(C(=O)COC(=O)CCC(=O)Nc2cccc(Cl)c2)cc1[N+](=O)[O-] | inconclusive: 1 µM [inhibitor, single point] | 
38 | Nc1ccc(N(c2ccccc2)c2ccc(N)cc2)cc1 | inconclusive: 20 µM [inhibitor, partial curve, poor fit] | 
39 | COc1cc(OC)cc(-c2c(C#Cc3ccsc3)c3cc(-c4ccccc4OC)ccc3n2C)c1 | inconclusive: 28.2 µM [inhibitor, single point] | 
40 | COc1cccc(OC)c1C(=O)Nc1ccc(CN2CCOCC2)cc1 | inconclusive: 5.01 µM [inhibitor, single point] | 
41 | CCOP(=O)(OCC)C(C)(C)NC(=O)c1cc([N+](=O)[O-])cc([N+](=O)[O-])c1 |  | inconclusive: -76.1% [inhibitor] [at 0.501 µM]
42 | CCn1nc([N+](=O)[O-])c(C(C#N)c2nc3cc(C(F)(F)F)ccc3s2)c(Cl)c1=O (stereo not given) | inconclusive: 39.8 µM [inhibitor, single point] | 
43 | Cc1ccc(-n2cc[nH]c2=S)cc1C | inactive | 
44 | COc1ccccc1N1CCN(CC(=O)NCc2ccc(Cl)cc2)CC1 | inactive | 
45 | CC(C)c1ccc(NC(=O)c2snc3ccc(Cl)cc23)cc1 | inactive | 
46 | O=C(Nc1ccc(F)cc1)NC1CCCCCCC1 | inconclusive: 39.8 µM [inhibitor, single point] | 
47 | COc1ccc(Cl)cc1N(CC(=O)Nc1ccccc1C(=O)N1CCOCC1)S(C)(=O)=O | inconclusive: 3.98 µM [inhibitor, single point] | 
48 | CCOC(=O)CNC(=O)CSc1nnc(-c2ccccc2)n1Cc1ccco1 | inactive | 

In the list so far, 5 have a furan ring, fused or not.
Row | Compound | Potency | activity change, negative = inhibition
5 | COc1ccccc1-n1c(CNC(=O)c2ccco2)n[nH]c1=S | inactive | 
25 | CC(=O)N1N=C(c2cccs2)CC1c1ccco1 (stereo not given) | inconclusive: 39.8 µM [inhibitor, single point] | 
26 | COC(=O)CN1C(=O)N/C(=C/c2ccc(C)o2)C1=O | inconclusive: 39.8 µM [inhibitor, single point] | 
35 | CC(=O)OCC1=C(C(=O)O)N2C(=O)C(NC(=O)c3ccc(COc4c(C)cccc4Cl)o3)C2SC1 (stereo not given) | inconclusive: 31.6 µM [inhibitor, single point] | 
48 | CCOC(=O)CNC(=O)CSc1nnc(-c2ccccc2)n1Cc1ccco1 | inactive | 

(continued)

Row | Compound | Potency | activity change, negative = inhibition
49 | CN(C)[C@H]1C(=O)C(C(=O)NCN2CCCC2)=C(O)[C@]2(O)C(=O)C3=C(O)c4c(O)cccc4[C@](C)(O)[C@H]3C[C@H]12 | active: 1.78 µM | 
50 | COc1ccccc1NC(=O)CSc1nc2ccccc2nc1N1CC(C)OC(C)C1 (stereo not given) | inconclusive: 25.1 µM [inhibitor, single point] | 
51 | Nc1n[nH]c(=S)n1/N=C1/C(=O)Nc2ccccc21 | active: 7.08 µM | 
52 | O=[N+]([O-])c1ccccc1S(=O)(=O)NCCC1=CCCCC1 | inconclusive: 0.112 µM [inhibitor, full curve, poor fit] | 
53 | Cc1cc(C(=O)COC(=O)c2cc(Cl)ccc2N)c(C)n1Cc1ccco1 | inactive | 
54 | CCOc1ccccc1CNC(=O)Cn1c(-c2ccccc2)cc(C(C)=O)c1C | inactive | 
55 | O=C(COc1coc(CN2CCN(c3ccc(F)cc3)CC2)cc1=O)NCC1CCCO1 (stereo not given) | inconclusive: 14.1 µM [inhibitor, partial curve] | 
56 | O=C(Nc1cccc(C(F)(F)F)c1)c1cc(Br)cc(Br)c1O | inconclusive: 39.8 µM [inhibitor, single point] | 
57 | CCN1CCN(S(=O)(=O)c2ccc(OC)c(NC(=O)c3ccccc3)c2)CC1 | inconclusive: 44.7 µM [inhibitor, single point] | 
58 | O=C(CNC(=O)Cc1ccccc1)NCC(=O)OCC(=O)c1ccccc1Cl | inconclusive: 0.708 µM [inhibitor, single point] | 
59 | CCOC(=O)c1ccc(NC(=O)CN2c3ccccc3S(=O)(=O)c3ccccc32)cc1 | inactive | 
60 | NC(=O)COC(=O)c1sc2ccccc2c1Cl | inconclusive: 0.562 µM [inhibitor, partial curve, poor fit] | 
61 | COC(=O)CSc1nc(C)c(C(=O)Nc2ccccc2C)c(-c2ccc(Cl)cc2)c1C#N | inconclusive: 31.6 µM [inhibitor, single point] | 
62 | CCC(CC)C(=O)Nc1ccc(-c2cn3cccnc3n2)cc1 | inconclusive: 22.4 µM [inhibitor, single point] | 
63 | COc1cccc(C(=O)N2CCc3c([nH]c4ccccc34)C2c2ccc(SC)cc2)c1 (stereo not given) | inconclusive: 0.891 µM [inhibitor, full curve, poor fit] | 
64 | O=C(Cc1ccc(Cl)cc1)SCc1ccccc1 | inactive | 
65 | O=Cc1ccc(OCc2ccc3ccccc3c2)cc1 | inconclusive: 0.708 µM [inhibitor, full curve, poor fit] | 
66 | COc1cc(C2CC(=O)NC3=C2C(=O)CC(C)(C)C3)cc(OC)c1O (stereo not given) | inconclusive: 0.794 µM [inhibitor, single point] | 
67 | OCCN(Cc1ccccc1)Cc1ccc(Cl)cc1Cl | inconclusive: 0.794 µM [inhibitor, single point] | 
68 | O=C(O)CCCNc1cc(N2CCC3(CC2)OCCO3)c2noc3c2c1C(=O)c1ccccc1-3 | inconclusive: 25.1 µM [inhibitor, partial curve, poor fit] | 
69 | CCC(=O)Nc1nc2ccccc2n1Cc1ccc(C)cc1 | inactive | 
70 | Cc1ccc(NC(=O)c2ccc(Cl)c(N3C(=O)CCC3=O)c2)cc1 | inconclusive: 39.8 µM [inhibitor, partial curve, poor fit] | 
